Measurements from patent US20230042448A1, “METHOD AND BIOMARKER FOR DETECTION OR DIAGNOSIS OF MYOCARDIAL INFARCTION” (priority 2021, published 2023).
At least one structure is not confirmed: it was looked up by name or label, or the drawing left a doubt.

System: C57BL/6J mice
Test: Butyrate supplementation via gavage after MI in mice with or without antibiotic (ABX) depletion of gut microbiota
Format: in vivo
[1] = catheterization, in particular with intact gut microbiota

Compound: CCCC(=O)O [butyrate]
- plasma level of β-hydroxybutyrate (MI day 21, colorimetric assay, butyrate supplementation): successfully increased
- left ventricular EF and FS (MI day 21, especially with intact gut microbiota): Improved
- plasma level of β-hydroxybutyrate, intact host gut microbiota versus ABX-depleted (MI day 21, host gut microbiota intact): even higher
- EDPVR [1]: lower
- ESPVR, PRSW and dP/dt max (vs. EDV) [1]: higher
- cardiac mechanical properties [1]: improved
- post-MI infarct size (picrosirius red): reduced
